In paper PMC10890620:
Results are given in words; binding and its absence hold for the method and conditions named. In cells and extracts the contact can be indirect. A result given as binding can be weak or reduced; the word gives no strength. Tags and fused reporters may be left off the sequences shown.

Target: T1, HA-tagged mouse tyrosinase (mouse) (UniProt P11344)
T1 sequence: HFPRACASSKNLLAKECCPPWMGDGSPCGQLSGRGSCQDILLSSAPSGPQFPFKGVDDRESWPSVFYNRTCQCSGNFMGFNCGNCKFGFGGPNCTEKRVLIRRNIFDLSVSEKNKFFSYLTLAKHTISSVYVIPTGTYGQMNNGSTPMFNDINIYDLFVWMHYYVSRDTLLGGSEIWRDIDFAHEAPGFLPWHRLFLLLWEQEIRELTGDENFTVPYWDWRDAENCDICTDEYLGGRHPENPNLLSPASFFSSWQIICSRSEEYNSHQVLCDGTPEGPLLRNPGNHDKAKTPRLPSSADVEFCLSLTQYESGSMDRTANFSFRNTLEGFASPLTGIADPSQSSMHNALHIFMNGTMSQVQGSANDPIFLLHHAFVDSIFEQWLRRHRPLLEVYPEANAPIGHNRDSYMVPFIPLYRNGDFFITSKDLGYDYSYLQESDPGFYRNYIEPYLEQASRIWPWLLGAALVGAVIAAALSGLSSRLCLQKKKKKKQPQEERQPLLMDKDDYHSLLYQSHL
Assay: co-IP; HEK293T cells cotransfected; lysis in TBS-T (50 mM Tris-HCl pH 7.5, 0.15 M NaCl, 1% Triton X-100, 0.5% deoxycholic acid); IP with anti-HA antibody on protein A Sepharose overnight at 4 °C; blot with anti-myc

- binding: binds
Substance: myc-tagged RNF152, wild type (enzyme)
